Data reported in the supplement of paper PMC10338343.
± gives the standard deviation. The entries are a selection whose mix differs from that of the whole data set. The uncertainty is large for many entries.

Tests used:
[1] = test system: MILI (PIWIL2) piRISC loaded with piRNA #1 (26 nt); test: pre-steady-state target cleavage rate (min^-1); higher = faster piRNA-guided slicing of the target; conditions: guide: piRNA #1 5'p-UGAGGUAGUAGGUUGUAUAGUAUCCA; auxiliary factor: 500 nM mouse GTSF1
How it was run: (§1)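 Cleave-'n-Seq used a transcribed, DNA-blocked target RNA library at 0.1 nM and active affinity-purified piRISC with one synthetic guide at 1 nM, with or without 500 nM GTSF1 partner protein, in HEPES–potassium acetate buffer at 33 °C for 0–8 or 0–960 min. Uncleaved targets were sequenced and normalised to depth and to weakly complementary targets, and three trials were pooled with k3 capped at 0.0001 min^-1. The pre-steady-state cleavage rate was estimated by a burst-and-steady-state fit.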

[2] = test system: EfPiwi piRISC loaded with piRNA #1 (26 nt); test: pre-steady-state target cleavage rate (min^-1); guide: piRNA #1 5'p-UGAGGUAGUAGGUUGUAUAGUAUCCA; MIWI and MILI are mouse PIWI proteins and EfPiwi is from a freshwater sponge; tags in brackets are library labels; higher = faster piRNA-guided slicing of the target; conditions: auxiliary factor: 500 nM Ephydatia muelleri Gtsf1
How it was run: as §1

Row | Sequence | pre-steady-state target cleavage rate [1] | pre-steady-state target cleavage rate [2]
1 | GGAGACGAUACUAUAGAACCUAGUACCUCA | 0.00273 ± 0.0037 | 0.0018 ± 0.0015
2 | GGAGAGGAUACUAUACAACCUACUACUUCA | 0.153 ± 0.015 | 0.121 ± 0.05
3 | GGAGACCUUAGUAUACAACCUUCUACCUCA | 0.00489 ± 0.0033 | 0.000906 ± 0.005
4 | GGAGACCUAACUAUACAUCCUACUACCUCA | 0.239 ± 0.028 | 0.00745 ± 0.0028
5 | GGAGACGAUAGUAUAGAACCUACUACCUCA | 0.158 ± 0.013 | 0.000825 ± 0.004
6 | GGAGUGGAUACAUACAACCUACUACCUCA | 0.131 ± 0.011 | 0.131 ± 0.048
7 | GGAGACGAUACUAUACAACCUAGCUACCUCA | 0.0598 ± 0.0083 | 0.00543 ± 0.0023
8 | GGAGACCUAUGAUAACAAUCUACUACCUCA | 0.00209 ± 0.0034 | 0.000278 ± 0.0082
9 | GGAGACGAUACUAUACAACCUUGAACCUCA | 0.00157 ± 0.0046 | 0.0016 ± 0.0025
10 | GGAGACCUAUGAUAACAAGCUACUAGCUCA | 0.00279 ± 0.0036 | 0.00131 ± 0.0069
11 | GGAGACCUAACUAUACAUCCUUCUACCUCA | 0.0117 ± 0.0069 | 0.00277 ± 0.0046
12 | GGAGACCUAACUAUACAACCAACUACCUGA | 0.00203 ± 0.0074 | 0.00262 ± 0.0038
13 | GGAGACGAUACUAUACAAGCUACUACCUCA | 0.269 ± 0.016 | 0.00854 ± 0.0028
14 | GGAGUGGAUACUACUACAACCUACUACCUCA | 0.193 ± 0.012 | 0.114 ± 0.038
15 | GGAGACCUAUGUAUACAACGUACUACGUCA | 0.00218 ± 0.0025 | 0.00138 ± 0.0036
16 | GGAGACCUAUCUAUACAACCUACAACCUCA | 0.0886 ± 0.013 | 0.00366 ± 0.0032
17 | GGAGACCUAACUAUACAAGCUACUACCACA | 0.309 ± 0.029 | 0.00316 ± 0.0044
18 | GGAGACCUAUGAUUACAAGCUACUACGUCA | 0.00819 ± 0.0037 | 0.00279 ± 0.0042
19 | GGAGACCGUACUAUACAACCUACUACCUCA | 0.157 ± 0.021 | 0.156 ± 0.049
20 | GGAGACCUAACAAUAGAACCUACUACCUCA | 0.0656 ± 0.012 | 0.00104 ± 0.0056
21 | GGAGACCUAUGAUAUGUACCUAUCUACCUCA | 0.000279 ± 0.013 | 0.000133 ± 0.018
22 | GGAGACCAUAGUAUACAAGCUACUACCUCA | 0.16 ± 0.015 | 0.00148 ± 0.0031
23 | GGAGACCUAUCUAUAGAACCUACUACGUCA | 0.0269 ± 0.0089 | 0.000307 ± 0.0078
24 | GGAGACCUAACUAUACAACCUUGUACCUCA | 0.000616 ± 0.021 | 0.0014 ± 0.0058
25 | GGAGACCUAUGAUAAAAACCUACUACCUCA | 0.00102 ± 0.0064 | 0.000608 ± 0.01
26 | GGAGACCUAACUAUACAACCUACUUGGAGA [g7:g21:cont:t1A] | 0.00193 ± 0.0083 | 0.0015 ± 0.0054
27 | GGAGACCUAACUAUACAUCCUACUACGUCA | 0.173 ± 0.052 | 0.00262 ± 0.0033

Record cards, as listed above. Order of values: pre-steady-state target cleavage rate [1] | pre-steady-state target cleavage rate [2]
GGAGACCUAUGAUAAAAACCUACUACCUCA as listed: 0.00102 ± 0.0064 | 0.000608 ± 0.01
GGAGAGGAUACUAUACAACCUACUACUUCA as listed: 0.153 ± 0.015 | 0.121 ± 0.05
GGAGACGAUAGUAUAGAACCUACUACCUCA as listed: 0.158 ± 0.013 | 0.000825 ± 0.004

(continued)

Row | Sequence | pre-steady-state target cleavage rate [1] | pre-steady-state target cleavage rate [2]
28 | GGAGUGGAUACUAUAAACCUACUACCUCA | 0.0206 ± 0.0043 | 0.00225 ± 0.0037
29 | GGAGACCUAUGAUAAGAACCUACAACCUCA | 0.000169 ± 0.019 | 0.000196 ± 0.032
30 | GGAGAGGAUAGUAUAGAACCUACUACCUCA | 0.0708 ± 0.012 | 0.00124 ± 0.0042
31 | GGAGACCUAUCUAUACAUCCAACUACCUCA | 0.00941 ± 0.0034 | 0.00281 ± 0.0041
32 | GGAGACCUAUGAUAUGUUGCAACUAGCUCA | 0.000259 ± 0.018 | 0.000113 ± 0.018
33 | GGAGACGCAUACUAUACAACCUACUACCUCA | 0.268 ± 0.024 | 0.0478 ± 0.018
34 | GGAGACCUAAACUAUACAACCUACUACCUCA | 0.148 ± 0.018 | 0.00974 ± 0.0047
35 | GGAGACCUAUGAUAAGAACCUACUAGCUCA | 0.000168 ± 0.018 | 0.000145 ± 0.018
36 | GGAGACCUUACUAUAGAACCUACAACCUCA | 0.00259 ± 0.0028 | 0.000503 ± 0.006
37 | GGAGACCUAUGAUAUGUCCCUACUACCUCA | 0.000109 ± 0.033 | 0.000909 ± 0.008
38 | GGAGACCUAUGAAAAGAACCUACUACCUCA | 0.00114 ± 0.0039 | 0.000666 ± 0.011
39 | GGAGACCUAUCUAUACAACCUACUAGGACA | 0.00154 ± 0.0065 | 0.000517 ± 0.0094
40 | GGAGACCAUACUAUACAACCUUGUACCUCA | 0.000848 ± 0.0068 | 0.00364 ± 0.0051
41 | GGAGACGAAACUAUACAACCUACAACCUCA | 0.133 ± 0.031 | 0.00368 ± 0.0027
42 | GGAGACCUAUCUAUACAACGCUACUACCUCA | 0.00135 ± 0.0054 | 0.00112 ± 0.0073
43 | GGAGACCUAUGAUAUGUUGCUACUUCCACA | < 0.0001 | 0.00021 ± 0.012
44 | GGAGACCUAUGUUUACAACCUACUUCCUCA | 0.0114 ± 0.0056 | 0.000483 ± 0.0071
45 | GGAGAGGAUACUAUACAAGGAUGAUGGAGA [g13:g25:cont:t1A] | 0.000294 ± 0.013 | 0.000303 ± 0.013
46 | GGAGUGGAUACUAACAACCUACUACCUCA | 0.183 ± 0.011 | 0.00566 ± 0.0038
47 | GGAGACCUUACUAUACAUCCUACAACCUCA | 0.214 ± 0.019 | 0.00333 ± 0.0044
48 | GGAGACCUAUGAAUACAACACUACUACCUCA | 0.000449 ± 0.015 | 0.000564 ± 0.0092
49 | GGAGACCAUAGUAUACAACCUACAACCUCA | 0.129 ± 0.017 | 0.00172 ± 0.0038
50 | GGAGACGUAACUAUACAACCUACUACCUCA | 0.166 ± 0.018 | 0.0248 ± 0.0098
51 | GGAGAGGAUACUAUACAACCAUGAUGGAGA [g11:g25:cont:t1A] | 0.00109 ± 0.0056 | 0.000805 ± 0.0046
52 | GGAGACCUAUGAUAACGAACCUACUACCUCA | 0.000586 ± 0.0067 | 0.000435 ± 0.015
53 | GGAGACGAUCACUAUACAACCUACUACCUCA | 0.131 ± 0.019 | 0.0768 ± 0.029
